The values below come from patent US4124703A (Imperial Chemical Industries Limited, priority 1976, dated 1978).

A short description of the data set: general procedure: solution-phase peptide synthesis; azide coupling (hydrazide, t-butyl nitrite/HCl in dioxan); 2,4,5-trichlorophenyl.

Consider “L-pyroglutamyl-D-phenylalanyl-L-tryptophyl-L-seryl-L-tyrosyl-D-phenylalanyl-L-leucyl-L-arginyl-L-prolylazaglycine amide”, for which the step yield turned out to be 59.2%.

Consider “L-pyroglutamyl-D-tryptophyl-L-tryptophyl-L-seryl-L-tyrosyl-D-phenylalanyl- L-leucyl-L-arginyl-L-prolylazaglycine amide”, for which the step yield is recorded as 30%.

In turn, “L-pyroglutamyl-L-tryptophyl-L-seryl-L-tyrosyl-D-phenylalanyl-L-leucyl-L-arginyl-L-prolylazaglycine amide” had a step yield of 32%.
